How the values were obtained:
[1] = set-up: method as in number not given; details: ref number not given, cited from earlier work
[2] = Radiolabeling with generator-produced [^68Ga]Ga^3+ (RCI by radio-TLC)
[3] = neutral pH (7), T = 90 °C, within 5 min

O=C(O)CN1CCN(CC(=O)O)CCN(CC(=O)O)CC1 [NOTA, 1,4,7-triazacyclononane-1,4,7-triacetic acid]
time for quantitative [^68Ga]Ga^3+ binding ([1]; room temperature, pH 3–5.5): ~10 min

O=C(O)CN1CCN(CC(=O)O)CCN(CC(=O)O)CCN(CC(=O)O)CC1 [DOTA, 1,4,7,10-tetraazacyclododecane-1,4,7,10-tetraacetic acid]
incubation time required for ^68Ga incorporation ([1]; T = 90 °C): > 10 min

O=C(O)CN(Cc1ccccc1O)[C@@H]1CCCC[C@H]1N(CC(=O)O)Cc1ccccc1O [HBCD, N,N′-di(2-hydroxybenzyl)-(1,2-cyclohexanediamine)-N,N′-diacetic acid]
ligand concentration giving quantitative RCI ([2]; neutral pH (7), RT, 15 min): 10^–5 M | ligand concentration giving quantitative RCI [2, 3]: 10^–6 M | ligand concentration giving quantitative RCI ([2]; pH 3, T = 90 °C, 5 min): 10^–4 M | quantitative [^68Ga]Ga^3+ chelation (RCI) ([2]; pH 3, room temperature, any of the tested conditions): unable to quantitatively chelate | ligand concentration giving quantitative RCI ([2]; pH 4.5, RT, 15 min): 10^–4 M | ligand concentration giving quantitative RCI ([2]; pH 4.5, heating (90 °C), 15 min): 10^–6 M

O=C(O)CN(CCN(CC(=O)O)Cc1ccccc1O)Cc1ccccc1O [HBED, N,N′-di(2-hydroxybenzyl)ethylenediamine-N,N′-diacetic acid]
ligand concentration giving quantitative RCI ([2]; neutral pH (7), RT, 5 min): 10^–6 M | ligand concentration giving quantitative RCI [2, 3]: 10^–6 M | ligand concentration giving quantitative RCI ([2]; pH 3, T = 90 °C, 5 min): 10^–7 M | ligand concentration giving quantitative RCI ([2]; pH 3, room temperature, 5 min): 10^–4 M | ligand concentration giving quantitative RCI ([2]; pH 4.5, RT, 15 min): 10^–5 M | ligand concentration giving quantitative RCI ([2]; pH 4.5, heating (90 °C), 5 min): 10^–7 M

From article PMC12458685, “Thwarting Isomerization through Rigidity: A Promising HBED Derivative for the Chelation of Gallium-68” (Inorganic Chemistry, 2025)
